Data: patent US11142588B2, “Polypeptides which bind C-X-C chemokine receptor type 4 (CXCR4) and methods of treating or reducing the risk of fibrosis and cancer” (AdAlta Limited, priority 2015, dated 2021)
For at least one compound, name, drawing or mass did not settle the structure.

Legend:
CCL2 and CCL5 protein = experiment: CCL2, CCL5, CXCL12 ELISA of fibroblast conditioned supernatants; assay type: cell-based, human; conditions: 48 hours
Description: Various reports indicate that CXCR4 signals in conjunction with other chemokine receptors, including CCR2.

[1] = test system: normal and IPF lung fibroblasts; experiment: Wound healing invasion assay of lung fibroblasts; assay type: cell-based, human; conditions: AMD3100 12 μM, 21H5 130 μg/ml
Protocol: To determine the role of CXCR4 and CXCL12 in fibroblast invasion, normal and IPF lung fibroblasts were utilized in a wound healing invasion assay. ImageLock 96 well plates (Essen Bioscience) were coated with 50 μg/ml of Basement membrane extract (BME; Trevigen) for one hour at room temperature. Normal, and fibroblasts generated from lung biopsies of idiopathic pulmonary fibrosis (IPF) patients showing slow progression or rapid progression of the disease were plated (36,000 cells per well) on the BME-coated plates and incubated overnight. […] The BME was allowed to polymerize by incubating the plate at 37° C. for 15 minutes. The plates were then inserted into an IncuCyte Zoom imaging system and images were acquired every 2 hours for approximately 50 hours. Invasion was quantified using IncuCyte software (Essen Bioscience).

COC(=O)c1ccc2c(c1)NC(=O)/C2=C(\Nc1ccc(N(C)C(=O)CN2CCN(C)CC2)cc1)c1ccccc1 [BIBF-1120, reference compound]
CCL2 protein in IPF fibroblast conditioned supernatants (CCL2 and CCL5 protein): markedly increased | invasion / motility of normal, slow and rapid IPF lung fibroblast lines [1]: effectively inhibited both normal and IPF fibroblast motility
